13 compounds from PubChem BioAssay AID248 (DTP/NCI, 2004) can be followed below.

The list does not hold the whole screen: it gathers tests that were run many times, whatever their T/C, doses with no T/C, and many T/C values between a quarter and a half above the control. Further doses and runs are listed elsewhere. T/C is the treated group as % of the vehicle group. Some entries give survivors of the animals treated and no T/C: the source files T/C as zero there, which appears to mark a toxic dose or a test without result, not a measured value. Some survivor counts are full or nearly so, which does not show that the dose was tolerated: the source hardly ever lists a survival T/C far under the control, and the zero likely stands for such cases as well. Counts of survivors are from the toxicity check (mostly the fifth day) where no day follows; animals may have died later. Schedules are NCI's codes, read here as Q, the interval in days (D) or hours (H), X, the number of doses. Some doses were run more than once; the results are listed from low to high. Some schedules carry Z or #; the key to these is not given. For survival time, the PubChem record calls one and a half times the control and up active, and a quarter to a half above the control has no call in these data; cut-offs in other NCI protocols can differ. Some T/C values are followed by the survivors on the day toxicity was checked, most often the fifth; where none is given, no animal had died by that day.

For this assay, the system named is L1210 leukemia ip in BDF1 mice, survival T/C. Kind of assay: NCI In Vivo Anticancer Drug Screen. Data for tumor model L1210 Leukemia (intraperitoneal) in B6D2F1 (BDF1) mice. The conditions noted are these: T/C endpoint: mean survival time, higher T/C = longer survival.
[1] abbreviates: dose: 400.0 mg/kg/injection, schedule: Q01DX001 (ip), vehicle: Klucel (hydroxypropylcellulose) (HPC).
Where [2] appears, read: dose: 200.0 mg/kg/injection, schedule: Q01DX001 (ip), vehicle: Klucel (hydroxypropylcellulose) (HPC).
[3] abbreviates: dose: 400.0 mg/kg/injection, schedule: Q01DX009 (ip), vehicle: Klucel (hydroxypropylcellulose) (HPC).
Setting [4] is: dose: 400.0 mg/kg/injection, schedule: Q01DX001 (ip), vehicle: saline.

Consider `CS/C(N)=N\NC(N)=S`, for which the survivor count under setting [1] is given as 6 of 6.
`Cc1cc(Oc2nc(Cl)nc(C(Cl)(Cl)Cl)c2Cl)cc(C)c1N(C)C` (tested in a mixture with another compound): where the note is “dose: 400.0 mg/kg/injection, schedule: Q04DX003 (ip), vehicle: Klucel (hydroxypropylcellulose) (HPC)”, the survivor count is 3 of 3.
For the compound `NC1=NC(CCc2ccccc2)N(c2ccc(Cl)cc2)C(N)=N1` (centres undefined), the survivor count is, setting by setting: (dose: 200.0 mg/kg/injection, schedule: Q01DX001 (ip), vehicle: steroid suspending solution) 1 of 6; (dose: 400.0 mg/kg/injection, schedule: Q01DX001 (ip), vehicle: steroid suspending solution) 0 of 6.
In the case of `Nc1ncnc2c1ncn2C1OC(CO)C(S)C1O` (centres undefined), the survivor count (dose: 400.0 mg/kg/injection, schedule: Q01DX001 (ip), vehicle: carboxymethylcellulose (CMC)) is listed as 0 of 4.
As to `O=C(O)c1cc2ccccc2c2cc(C(F)(F)F)ccc12`, the survivor count (dose: 300.0 mg/kg/injection, schedule: Q01DX001 (ip), vehicle: saline) is reported as 2 of 6.
With `CC[n+]1ccc(Nc2ccc(NC(=O)c3ccc(Nc4cc[n+](CC)c5ccc([N+](=O)[O-])cc45)cc3)cc2)cc1`, the T/C is 138 % of control (dose: 6.25 mg/kg/injection, schedule: Q01DX009 (ip), vehicle: saline sonified); 130 % of control (dose: 7.0 mg/kg/injection, schedule: Q01DX009 (ip), vehicle: Klucel (hydroxypropylcellulose) (HPC)); 130 and 132 % of control (dose: 11.0 mg/kg/injection, schedule: Q01DX009 (ip), vehicle: Klucel (hydroxypropylcellulose) (HPC)); 145 % of control [5 of 6 alive] (dose: 12.5 mg/kg/injection, schedule: Q01DX009 (ip), vehicle: Klucel (hydroxypropylcellulose) (HPC)); 141 % of control (dose: 12.5 mg/kg/injection, schedule: Q01DX009 (ip), vehicle: saline sonified); 128 % of control (dose: 15.66 mg/kg/injection, schedule: Q01DX009 (ip), vehicle: saline with Tween-80). For the same compound, the T/C (dose: 16.5 mg/kg/injection, schedule: Q01DX009 (ip), vehicle: saline) was 146 % of control; the T/C (dose: 23.5 mg/kg/injection, schedule: Q01DX009 (ip), vehicle: saline with Tween-80) is 140 % of control; the T/C (dose: 25.0 mg/kg/injection, schedule: Q01DX009 (ip), vehicle: Klucel (hydroxypropylcellulose) (HPC)) was 132 % of control; the T/C (dose: 50.0 mg/kg/injection, schedule: Q01DX009 (ip), vehicle: Klucel (hydroxypropylcellulose) (HPC)) is 137 % of control. For the same compound, the survivor count reads like this: (dose: 37.5 mg/kg/injection, schedule: Q01DX009 (ip), vehicle: Klucel (hydroxypropylcellulose) (HPC)) 3 of 6; (dose: 50.0 mg/kg/injection, schedule: Q01DX001 (ip), vehicle: Klucel (hydroxypropylcellulose) (HPC)) 0 of 6; (dose: 100.0 mg/kg/injection, schedule: Q01DX001 (ip), vehicle: Klucel (hydroxypropylcellulose) (HPC)) 0 of 6; (dose: 100.0 mg/kg/injection, schedule: Q01DX009 (ip), vehicle: Klucel (hydroxypropylcellulose) (HPC)) 2 of 6; under setting [2], 0 of 6; under setting [1], 0 of 6.
Turning to `CC1(C)N=C(N)N=C(N)N1c1ccc(OCCCc2ccccc2)c([N+](=O)[O-])c1`, the survivor count under setting [3] is recorded as 0 of 6.
Turning to `C#CC(OC(=O)NC1CCCCC1)(c1ccccc1)c1ccccc1`, the T/C by setting is: (dose: 25.0 mg/kg/injection, schedule: Q01DX009 (ip), vehicle: saline with Tween-80) 128 % of control; (dose: 50.0 mg/kg/injection, schedule: Q01DX009 (ip), vehicle: saline sonified) 129 % of control; (dose: 50.0 mg/kg/injection, schedule: Q01DX009 (ip), vehicle: saline) 128 % of control; (dose: 100.0 mg/kg/injection, schedule: Q01DX009 (ip), vehicle: saline) 144 % of control; (dose: 200.0 mg/kg/injection, schedule: Q04DX003 (ip), vehicle: saline sonified) 148 % of control. The survivor count was 6 of 6 (dose: 33.0 mg/kg/injection, schedule: Q01DX009 (ip), vehicle: saline with Tween-80); 6 of 6 (dose: 50.0 mg/kg/injection, schedule: Q01DX009 (ip), vehicle: saline with Tween-80); 6 of 6 (dose: 75.0 mg/kg/injection, schedule: Q01DX009 (ip), vehicle: saline with Tween-80); 3 of 6 (dose: 200.0 mg/kg/injection, schedule: Q01DX009 (ip), vehicle: saline sonified); 2 of 6 and 6 of 6 (dose: 200.0 mg/kg/injection, schedule: Q01DX009 (ip), vehicle: saline); 1 of 6 (dose: 400.0 mg/kg/injection, schedule: Q01DX009 (ip), vehicle: saline).
For `O=Nc1ccc(O)cc1Cl`, the survivor count under setting [2] is 3 of 3.
Take `CCOc1ccc(NC(=O)OCCN2CCN(CCc3ccccc3)C(C)C2)cc1` (centres undefined): the survivor count under setting [4] is recorded as 1 of 4.
Turning to `CCOC(=O)NNC(=S)NCc1ccccc1`, the survivor count under setting [3] is given as 0 of 6.
As for `O=c1cc(-c2ccccc2)nc(SCc2ccccc2Cl)[nH]1`, the survivor count runs as follows: (dose: 50.0 mg/kg/injection, schedule: Q01DX Z (ip), vehicle: methylcellulose (MC)) 6 of 6; (dose: 100.0 mg/kg/injection, schedule: Q01DX Z (ip), vehicle: methylcellulose (MC)) 6 of 6; (dose: 200.0 mg/kg/injection, schedule: Q01DX Z (ip), vehicle: methylcellulose (MC)) 6 of 6.
Consider `CC(C)N=C(NC(C)C)N1CC1`, for which the survivor count by setting is: (dose: 80.0 mg/kg/injection, schedule: Q01DX001 (ip), vehicle: saline) 2 of 7; (dose: 100.0 mg/kg/injection, schedule: Q01DX001 (ip), vehicle: saline) 1 of 6; (dose: 200.0 mg/kg/injection, schedule: Q01DX001 (ip), vehicle: saline) 0 of 6; under setting [4], 0 of 6.
